The test system of the assay is PC3 cells. As to the kind of experiment: MTT cytotoxicity in PC3 cells. In kind it is cell-based, human. The settings on record: PC3, 72 h, means±s.e.m. As for the experimental part: 4T1.2 or PC3 cells at 2,000 cells/well were seeded in 96-well plates, respectively. […] After 3 days of incubation, 20 μl of 3-(4, 5-dimethylthiazol-2-yl)-2,5-diphenyltetrazoliumbromide (MTT) in DPBS (5 mg ml^−1) was added to each well and cells were further incubated for 2 h. Medium was removed and MTT formazan crystals were solubilized by 100 μl of DMSO per well. Absorbance of each well was measured with a microplate reader at wavelength of 550 nm. Untreated wells were used as controls. Cell viability was calculated as ((ODtreated−ODblank)/(ODcontrol−ODblank) × 100%).

Values after ≈ are worked out from the molar mass of the structure shown.

The term IC50 denotes the midpoint of a concentration-inhibition curve. A lower IC50 goes with greater potency.

As for `COc1cccc2c1C(=O)c1c(O)c3c(c(O)c1C2=O)C[C@@](O)(C(=O)CO)C[C@@H]3O[C@H]1C[C@H](N)[C@H](O)[C@H](C)O1` [DOX, doxorubicin], the IC50 turned out to be 0.54804 ± 0.05893 µg/mL (≈ 1.01 µM).
